Data on 35 targets can be found in the supplement of paper PMC12067093, “Discovery and optimisation of a covalent ligand for TRIM25 and its application to targeted protein ubiquitination” (Chemical Science, 2025).

The chains behind the UniProt entries cited, without tags or fusion partners. Where a name states a change or a piece, a line headed by the entry shows the natural chain unless it says otherwise.
UniProt Q96PM5: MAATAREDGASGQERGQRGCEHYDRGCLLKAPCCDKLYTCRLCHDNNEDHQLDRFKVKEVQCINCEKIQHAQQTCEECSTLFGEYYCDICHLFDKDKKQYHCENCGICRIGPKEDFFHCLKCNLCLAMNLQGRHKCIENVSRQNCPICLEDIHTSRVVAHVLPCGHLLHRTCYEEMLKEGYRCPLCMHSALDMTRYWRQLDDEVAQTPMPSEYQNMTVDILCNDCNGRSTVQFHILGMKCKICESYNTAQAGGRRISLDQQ
UniProt Q09028, whole entry, looked up: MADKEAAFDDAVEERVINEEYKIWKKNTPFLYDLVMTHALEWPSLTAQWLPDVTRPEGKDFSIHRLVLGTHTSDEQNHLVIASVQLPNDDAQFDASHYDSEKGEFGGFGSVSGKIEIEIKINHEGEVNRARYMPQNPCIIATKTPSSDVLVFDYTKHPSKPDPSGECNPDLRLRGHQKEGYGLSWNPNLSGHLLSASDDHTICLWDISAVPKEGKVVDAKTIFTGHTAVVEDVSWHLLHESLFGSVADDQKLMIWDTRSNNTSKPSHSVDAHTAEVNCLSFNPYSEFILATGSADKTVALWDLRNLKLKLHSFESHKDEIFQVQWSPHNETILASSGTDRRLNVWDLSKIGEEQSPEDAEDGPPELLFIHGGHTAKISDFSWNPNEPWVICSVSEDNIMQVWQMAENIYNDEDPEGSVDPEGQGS
UniProt P43487, whole entry, looked up: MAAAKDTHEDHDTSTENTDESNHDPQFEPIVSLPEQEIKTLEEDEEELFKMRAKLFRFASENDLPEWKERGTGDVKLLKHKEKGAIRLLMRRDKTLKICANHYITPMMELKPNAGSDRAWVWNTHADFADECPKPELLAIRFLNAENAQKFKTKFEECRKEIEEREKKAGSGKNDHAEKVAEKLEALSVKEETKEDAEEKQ
UniProt Q7LDG7: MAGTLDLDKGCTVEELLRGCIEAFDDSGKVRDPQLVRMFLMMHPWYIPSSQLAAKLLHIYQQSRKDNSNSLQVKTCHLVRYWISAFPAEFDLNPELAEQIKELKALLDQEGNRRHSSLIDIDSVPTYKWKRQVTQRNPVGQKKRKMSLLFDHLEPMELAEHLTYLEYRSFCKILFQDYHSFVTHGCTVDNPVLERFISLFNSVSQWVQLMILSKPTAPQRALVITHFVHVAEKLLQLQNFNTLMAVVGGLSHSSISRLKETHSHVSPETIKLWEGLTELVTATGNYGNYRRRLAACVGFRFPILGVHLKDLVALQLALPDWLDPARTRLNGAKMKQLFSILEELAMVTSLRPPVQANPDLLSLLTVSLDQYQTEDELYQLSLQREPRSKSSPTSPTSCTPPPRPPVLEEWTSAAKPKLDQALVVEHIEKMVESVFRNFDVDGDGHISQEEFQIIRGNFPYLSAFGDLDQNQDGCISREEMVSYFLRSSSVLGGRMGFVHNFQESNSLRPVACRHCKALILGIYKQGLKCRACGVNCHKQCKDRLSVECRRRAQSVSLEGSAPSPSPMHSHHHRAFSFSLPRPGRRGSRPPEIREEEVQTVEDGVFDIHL
UniProt Q8TDY2, whole entry, looked up: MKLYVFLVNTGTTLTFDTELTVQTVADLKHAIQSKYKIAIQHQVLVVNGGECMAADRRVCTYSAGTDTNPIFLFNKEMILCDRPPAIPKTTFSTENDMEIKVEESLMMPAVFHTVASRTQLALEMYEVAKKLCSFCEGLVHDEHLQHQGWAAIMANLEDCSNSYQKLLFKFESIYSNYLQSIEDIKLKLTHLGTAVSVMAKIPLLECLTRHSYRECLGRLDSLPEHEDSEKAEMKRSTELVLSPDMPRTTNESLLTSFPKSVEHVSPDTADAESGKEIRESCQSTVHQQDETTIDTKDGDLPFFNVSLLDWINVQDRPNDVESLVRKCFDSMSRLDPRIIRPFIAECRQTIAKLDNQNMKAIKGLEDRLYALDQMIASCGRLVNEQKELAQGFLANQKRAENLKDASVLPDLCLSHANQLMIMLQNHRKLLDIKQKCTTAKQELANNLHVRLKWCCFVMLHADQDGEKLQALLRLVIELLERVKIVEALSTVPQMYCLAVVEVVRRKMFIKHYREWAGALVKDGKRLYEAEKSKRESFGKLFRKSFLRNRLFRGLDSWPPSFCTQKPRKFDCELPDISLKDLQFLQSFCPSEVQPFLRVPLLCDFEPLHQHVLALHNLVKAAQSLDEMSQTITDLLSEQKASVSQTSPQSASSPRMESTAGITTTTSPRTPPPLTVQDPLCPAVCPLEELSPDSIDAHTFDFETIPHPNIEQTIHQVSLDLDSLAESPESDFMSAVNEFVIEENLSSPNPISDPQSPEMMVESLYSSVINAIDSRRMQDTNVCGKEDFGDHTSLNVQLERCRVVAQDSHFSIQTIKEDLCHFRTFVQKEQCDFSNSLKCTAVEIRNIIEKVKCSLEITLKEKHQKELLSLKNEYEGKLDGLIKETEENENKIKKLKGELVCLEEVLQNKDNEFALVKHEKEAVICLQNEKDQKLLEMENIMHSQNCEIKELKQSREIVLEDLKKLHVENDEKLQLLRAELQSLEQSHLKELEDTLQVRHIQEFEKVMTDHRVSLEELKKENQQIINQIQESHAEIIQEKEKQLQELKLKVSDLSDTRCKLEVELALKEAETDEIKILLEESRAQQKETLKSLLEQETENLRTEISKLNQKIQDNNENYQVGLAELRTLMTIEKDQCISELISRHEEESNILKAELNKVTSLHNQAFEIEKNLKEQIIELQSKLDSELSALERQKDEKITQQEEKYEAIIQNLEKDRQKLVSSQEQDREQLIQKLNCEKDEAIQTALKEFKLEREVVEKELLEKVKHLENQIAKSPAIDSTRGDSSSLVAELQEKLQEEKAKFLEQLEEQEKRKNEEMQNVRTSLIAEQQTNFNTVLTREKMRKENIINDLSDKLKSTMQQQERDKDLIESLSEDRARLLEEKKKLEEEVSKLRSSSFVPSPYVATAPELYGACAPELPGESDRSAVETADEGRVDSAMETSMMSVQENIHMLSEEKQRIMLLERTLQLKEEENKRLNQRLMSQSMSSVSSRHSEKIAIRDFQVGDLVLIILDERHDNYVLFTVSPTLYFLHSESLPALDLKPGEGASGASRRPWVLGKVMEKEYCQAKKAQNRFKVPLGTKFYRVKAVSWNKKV
UniProt Q9BYM8: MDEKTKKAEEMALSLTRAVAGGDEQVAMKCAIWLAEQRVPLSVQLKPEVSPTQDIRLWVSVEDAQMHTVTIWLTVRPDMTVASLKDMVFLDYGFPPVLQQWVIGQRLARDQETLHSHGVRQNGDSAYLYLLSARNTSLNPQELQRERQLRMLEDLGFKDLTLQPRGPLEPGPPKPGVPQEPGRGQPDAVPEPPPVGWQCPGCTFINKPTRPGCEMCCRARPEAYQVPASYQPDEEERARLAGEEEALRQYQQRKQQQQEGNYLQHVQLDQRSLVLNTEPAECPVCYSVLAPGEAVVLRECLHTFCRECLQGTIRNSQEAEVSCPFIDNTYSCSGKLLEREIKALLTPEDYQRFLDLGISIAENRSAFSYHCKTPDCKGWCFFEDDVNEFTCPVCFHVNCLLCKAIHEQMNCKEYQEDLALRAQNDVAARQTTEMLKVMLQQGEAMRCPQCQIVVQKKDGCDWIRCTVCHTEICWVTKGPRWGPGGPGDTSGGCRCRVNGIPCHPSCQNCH
UniProt P54136: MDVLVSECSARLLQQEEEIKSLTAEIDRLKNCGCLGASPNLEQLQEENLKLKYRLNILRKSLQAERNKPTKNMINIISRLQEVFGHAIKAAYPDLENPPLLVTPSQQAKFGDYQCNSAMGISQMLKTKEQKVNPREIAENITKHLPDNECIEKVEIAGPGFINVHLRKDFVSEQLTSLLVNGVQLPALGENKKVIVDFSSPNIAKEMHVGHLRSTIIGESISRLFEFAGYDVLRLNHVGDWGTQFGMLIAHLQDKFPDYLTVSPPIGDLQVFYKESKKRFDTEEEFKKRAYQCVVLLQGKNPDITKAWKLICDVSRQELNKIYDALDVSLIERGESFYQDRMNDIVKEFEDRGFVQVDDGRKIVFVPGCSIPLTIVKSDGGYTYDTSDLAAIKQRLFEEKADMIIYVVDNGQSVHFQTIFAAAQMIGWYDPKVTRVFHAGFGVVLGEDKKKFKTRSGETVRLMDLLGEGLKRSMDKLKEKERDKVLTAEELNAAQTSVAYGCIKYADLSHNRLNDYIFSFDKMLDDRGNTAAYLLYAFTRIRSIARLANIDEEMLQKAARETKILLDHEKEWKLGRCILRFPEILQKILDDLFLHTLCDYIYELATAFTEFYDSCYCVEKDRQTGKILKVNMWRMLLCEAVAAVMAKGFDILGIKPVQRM
UniProt P18754: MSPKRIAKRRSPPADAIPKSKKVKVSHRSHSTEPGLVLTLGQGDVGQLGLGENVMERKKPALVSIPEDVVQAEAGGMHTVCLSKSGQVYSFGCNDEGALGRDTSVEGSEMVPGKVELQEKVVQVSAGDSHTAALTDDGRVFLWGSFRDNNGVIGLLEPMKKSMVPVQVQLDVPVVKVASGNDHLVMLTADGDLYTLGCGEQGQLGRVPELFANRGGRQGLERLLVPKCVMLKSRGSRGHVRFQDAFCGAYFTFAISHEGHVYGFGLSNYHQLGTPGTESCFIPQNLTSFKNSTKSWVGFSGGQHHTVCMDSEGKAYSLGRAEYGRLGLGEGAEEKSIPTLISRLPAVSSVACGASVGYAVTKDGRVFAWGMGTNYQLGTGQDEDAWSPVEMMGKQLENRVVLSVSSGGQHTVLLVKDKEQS
UniProt Q7Z6E9: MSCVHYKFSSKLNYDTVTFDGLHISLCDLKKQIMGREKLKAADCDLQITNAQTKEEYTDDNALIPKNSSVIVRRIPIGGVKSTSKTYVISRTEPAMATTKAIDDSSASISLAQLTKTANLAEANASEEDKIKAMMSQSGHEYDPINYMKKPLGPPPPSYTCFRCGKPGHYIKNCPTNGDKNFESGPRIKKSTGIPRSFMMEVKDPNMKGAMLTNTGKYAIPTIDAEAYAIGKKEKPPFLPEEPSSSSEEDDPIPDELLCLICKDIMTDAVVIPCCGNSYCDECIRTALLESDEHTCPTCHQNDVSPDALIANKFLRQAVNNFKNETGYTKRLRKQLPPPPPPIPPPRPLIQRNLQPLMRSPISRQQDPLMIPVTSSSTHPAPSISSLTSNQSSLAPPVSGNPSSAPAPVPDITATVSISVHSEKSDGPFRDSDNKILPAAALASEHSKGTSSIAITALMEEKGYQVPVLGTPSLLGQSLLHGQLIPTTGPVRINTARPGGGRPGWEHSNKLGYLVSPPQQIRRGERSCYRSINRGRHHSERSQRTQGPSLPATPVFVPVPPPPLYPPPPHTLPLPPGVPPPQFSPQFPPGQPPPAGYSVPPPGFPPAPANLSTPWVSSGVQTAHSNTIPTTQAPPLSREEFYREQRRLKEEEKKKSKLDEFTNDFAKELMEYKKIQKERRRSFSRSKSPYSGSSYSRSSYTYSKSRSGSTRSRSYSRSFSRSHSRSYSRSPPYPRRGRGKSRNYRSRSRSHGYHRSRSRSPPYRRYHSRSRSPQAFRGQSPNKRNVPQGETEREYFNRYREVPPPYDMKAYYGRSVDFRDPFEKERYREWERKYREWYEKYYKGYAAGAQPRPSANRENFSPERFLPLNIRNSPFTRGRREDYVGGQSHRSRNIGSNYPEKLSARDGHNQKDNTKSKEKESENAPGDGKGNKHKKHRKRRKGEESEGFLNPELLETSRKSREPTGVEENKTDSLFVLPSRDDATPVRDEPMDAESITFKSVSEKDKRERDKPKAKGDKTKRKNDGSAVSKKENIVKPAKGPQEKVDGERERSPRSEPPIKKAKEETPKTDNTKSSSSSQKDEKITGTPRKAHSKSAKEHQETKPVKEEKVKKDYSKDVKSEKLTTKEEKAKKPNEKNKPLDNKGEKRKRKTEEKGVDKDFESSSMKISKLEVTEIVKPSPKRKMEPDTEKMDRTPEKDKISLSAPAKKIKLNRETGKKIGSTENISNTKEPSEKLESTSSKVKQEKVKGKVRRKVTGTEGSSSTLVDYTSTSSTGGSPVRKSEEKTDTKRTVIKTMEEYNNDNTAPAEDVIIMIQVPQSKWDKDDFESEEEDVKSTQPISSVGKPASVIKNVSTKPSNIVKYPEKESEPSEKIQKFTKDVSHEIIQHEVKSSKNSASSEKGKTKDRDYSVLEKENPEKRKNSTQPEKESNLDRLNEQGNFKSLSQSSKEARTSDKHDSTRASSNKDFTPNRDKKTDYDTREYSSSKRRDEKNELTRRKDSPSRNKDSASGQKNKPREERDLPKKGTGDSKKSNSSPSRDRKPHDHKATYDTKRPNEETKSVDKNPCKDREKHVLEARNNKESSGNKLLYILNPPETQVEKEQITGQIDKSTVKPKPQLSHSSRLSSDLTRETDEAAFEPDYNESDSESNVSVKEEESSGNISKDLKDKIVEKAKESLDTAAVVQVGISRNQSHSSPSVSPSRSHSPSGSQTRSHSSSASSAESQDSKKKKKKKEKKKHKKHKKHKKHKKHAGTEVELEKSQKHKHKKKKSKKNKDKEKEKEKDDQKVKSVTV

The other results are listed elsewhere or left out.

Compound in this test: CC1Cc2ccccc2N1C(=O)C1CCCN(C1)C(=O)CCl (mixture of isomers) [TRIM25 ligand 11 (diastereomer mixture)]
Briefly: probe-labelled cysteine peptide fold change vs DMSO (competition) (log2 fold change); higher = less target engagement (more negative = stronger competition). Conditions: THP-1, incubation time: 4 h.
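Further: competitive chemoproteomic profiling in live THP-1 cells with an iodoacetamide desthiobiotin (IA-DTB) probe, comparing probe-labelled peptide intensities in compound-treated cells against DMSO-treated controls.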

Regarding “RCHY1_Q96PM5_20_GCEHYDR (UniProt Q96PM5)”, the “probe-labelled cysteine peptide fold change” value (10 µM) is -0.0387 and the “probe-labelled cysteine peptide fold change” value (50 µM) is -0.115.

Regarding “RANBP2_P49792_3032_EVADCFK (UniProt P49792)”, the “probe-labelled cysteine peptide fold change” value runs as follows: (10 µM) 0.134; (50 µM) 0.109.

On to “RAPGEF1_Q13905_817_CATSSQPLAAR (UniProt Q13905)”, for which the “probe-labelled cysteine peptide fold change” value is, setting by setting: (10 µM) -0.0112; (50 µM) -0.122.

Take “RBPJ_Q06330_72_FFCPPPCVYLMGSGWK (UniProt Q06330)”: the “probe-labelled cysteine peptide fold change” value (10 µM) amounted to 0.0316 and the “probe-labelled cysteine peptide fold change” value (50 µM) is -0.154.

For the target “RBBP4_Q09028_138_YMPQNPCIIATK (UniProt Q09028)”, the “probe-labelled cysteine peptide fold change” value is -0.0727 (10 µM) and -0.0279 (50 µM).

With “RANBP1_P43487_99_ICANHYITPMMELKPNAGSDR (UniProt P43487)”, the “probe-labelled cysteine peptide fold change” value was -0.0756 (10 µM) and -0.0964 (50 µM).

Turning to “RCHY1_Q96PM5_119_EDFFHCLK (UniProt Q96PM5)”, the “probe-labelled cysteine peptide fold change” value reads like this: (10 µM) -0.069; (50 µM) 0.0278.

For “RANBP10_Q6VN20_243_VQGTVHCFPISAR (UniProt Q6VN20)”, the “probe-labelled cysteine peptide fold change” value runs as follows: (10 µM) 0.273; (50 µM) 0.368.

As to “RBM19_Q9Y4C8_31_QLFAAFGTLTDCSLK (UniProt Q9Y4C8)”, the “probe-labelled cysteine peptide fold change” value by setting is: (10 µM) 0.131; (50 µM) 0.175.

On to “RALGAPA1_Q6GYQ0_424_QAFLLPICEAAAMR (UniProt Q6GYQ0)”, for which the “probe-labelled cysteine peptide fold change” value by setting is: (10 µM) 0.13; (50 µM) 0.00393.

As to “RCL1_Q9Y2P8_13_ATQAHSLSYAGCNFLR (UniProt Q9Y2P8)”, the “probe-labelled cysteine peptide fold change” value (10 µM) turned out to be 0.344 and the “probe-labelled cysteine peptide fold change” value (50 µM) was 0.223.

For “RASA1_P20936_261_FSSLSDLIGYYSHVSCLLK (UniProt P20936)”, the “probe-labelled cysteine peptide fold change” value is, setting by setting: (10 µM) 0.0868; (50 µM) -0.0482.

In the case of “RBM23_Q86U06_316_GYGFITFSDSECAR (UniProt Q86U06)”, the “probe-labelled cysteine peptide fold change” value runs as follows: (10 µM) 0.211; (50 µM) 0.111.

With “RBM28_Q9NW13_490_LCLHNLPK (UniProt Q9NW13)”, the “probe-labelled cysteine peptide fold change” value is, setting by setting: (10 µM) 0.0314; (50 µM) 0.0289.

For the target “RBM34_P42696_196_TVFVGNLPVTCNKK (UniProt P42696)”, the “probe-labelled cysteine peptide fold change” value (10 µM) is -0.175 and the “probe-labelled cysteine peptide fold change” value (50 µM) was -0.38.

In the case of “RASGRP2_Q7LDG7_11_GCTVEELLR (UniProt Q7LDG7)”, the “probe-labelled cysteine peptide fold change” value is, setting by setting: (10 µM) -0.0391; (50 µM) 0.207.

In the case of “RB1CC1_Q8TDY2_946_LLEMENIMHSQNCEIK (UniProt Q8TDY2)”, the “probe-labelled cysteine peptide fold change” value reads like this: (10 µM) 0.0685; (50 µM) -0.163.

Regarding “RASGRP2_Q7LDG7_548_DRLSVECR (UniProt Q7LDG7)”, the “probe-labelled cysteine peptide fold change” value (10 µM) was -0.162 and the “probe-labelled cysteine peptide fold change” value (50 µM) was -0.156.

As to “RBCK1_Q9BYM8_493_WGPGGPGDTSGGCR (UniProt Q9BYM8)”, the “probe-labelled cysteine peptide fold change” value by setting is: (10 µM) -0.00776; (50 µM) -0.0504.

Take “RAD9A_Q99638_129+141_THNLSFQDCESLQAVFDPASCPHMLR (UniProt Q99638)”: the “probe-labelled cysteine peptide fold change” value was -0.111 (10 µM) and -0.225 (50 µM).

Regarding “RASAL3_Q86YV0_614_LLCPAILAPSLFGLAPDHPAPGPAR (UniProt Q86YV0)”, the “probe-labelled cysteine peptide fold change” value was -0.0801 (10 µM) and 0.0213 (50 µM).

In the case of “RAI14_Q9P0K7_101_NSHHECIR (UniProt Q9P0K7)”, the “probe-labelled cysteine peptide fold change” value (10 µM) is 0.23 and the “probe-labelled cysteine peptide fold change” value (50 µM) is 0.0866.

“RASGRP2_Q7LDG7_512_MGFVHNFQESNSLRPVACR (UniProt Q7LDG7)”: the “probe-labelled cysteine peptide fold change” value is -0.214 (10 µM) and -0.0958 (50 µM).

Turning to “RARS_P54136_34_NCGCLGASPNLEQLQEENLK (UniProt P54136)”, the “probe-labelled cysteine peptide fold change” value by setting is: (10 µM) -0.36; (50 µM) -0.206.

Take “RBCK1_Q9BYM8_411_AIHEQMNCK (UniProt Q9BYM8)”: the “probe-labelled cysteine peptide fold change” value is, setting by setting: (10 µM) -0.0226; (50 µM) -0.0756.

On to “RASA3_Q14644_144_LSEVITDTGVVCHK (UniProt Q14644)”, for which the “probe-labelled cysteine peptide fold change” value (10 µM) came out at 0.0131 and the “probe-labelled cysteine peptide fold change” value (50 µM) stood at 0.214.

As for “RCC2_Q9P258_280_GNLYSFGCPEYGQLGHNSDGK (UniProt Q9P258)”, the “probe-labelled cysteine peptide fold change” value (10 µM) came out at 0.288 and the “probe-labelled cysteine peptide fold change” value (50 µM) was -0.207.

With “RARS_P54136_115_FGDYQCNSAMGISQMLK (UniProt P54136)”, the “probe-labelled cysteine peptide fold change” value runs as follows: (10 µM) -0.133; (50 µM) -0.235.

With “RCC1_P18754_93_SGQVYSFGCNDEGALGR (UniProt P18754)”, the “probe-labelled cysteine peptide fold change” value (10 µM) was 0.0702 and the “probe-labelled cysteine peptide fold change” value (50 µM) worked out at 0.0939.

As to “RBBP6_Q7Z6E9_280+283_DIMTDAVVIPCCGNSYCDECIR (UniProt Q7Z6E9)”, the “probe-labelled cysteine peptide fold change” value was -0.45 (10 µM) and -0.0457 (50 µM).

As to “RAN_P62826_112_VCENIPIVLCGNK (UniProt P62826)”, the “probe-labelled cysteine peptide fold change” value by setting is: (10 µM) -0.00181; (50 µM) 0.089.

With “RBM5_P52756_766_CQGITAPIEAQVR (UniProt P52756)”, the “probe-labelled cysteine peptide fold change” value reads like this: (10 µM) -0.041; (50 µM) -0.287.

For the target “RAD54L2_Q9Y4B4_453_ALCRPGPDVVICDEGHR (UniProt Q9Y4B4)”, the “probe-labelled cysteine peptide fold change” value (10 µM) is -0.0529 and the “probe-labelled cysteine peptide fold change” value (50 µM) is -0.116.

On to “RBM15B_Q8NDT2_323_GRPYGYPAVCEEDLMPEDDQR (UniProt Q8NDT2)”, for which the “probe-labelled cysteine peptide fold change” value reads like this: (10 µM) -0.102; (50 µM) -0.177.

“RBBP6_Q7Z6E9_27_LNYDTVTFDGLHISLCDLK (UniProt Q7Z6E9)”: the “probe-labelled cysteine peptide fold change” value (10 µM) came to 0.212 and the “probe-labelled cysteine peptide fold change” value (50 µM) was 0.0195.
